Percent effect of library compounds

The chains behind the UniProt entries cited, without tags or fusion partners. Residues count along the entry.
UniProt Q8IDJ8, 1-583: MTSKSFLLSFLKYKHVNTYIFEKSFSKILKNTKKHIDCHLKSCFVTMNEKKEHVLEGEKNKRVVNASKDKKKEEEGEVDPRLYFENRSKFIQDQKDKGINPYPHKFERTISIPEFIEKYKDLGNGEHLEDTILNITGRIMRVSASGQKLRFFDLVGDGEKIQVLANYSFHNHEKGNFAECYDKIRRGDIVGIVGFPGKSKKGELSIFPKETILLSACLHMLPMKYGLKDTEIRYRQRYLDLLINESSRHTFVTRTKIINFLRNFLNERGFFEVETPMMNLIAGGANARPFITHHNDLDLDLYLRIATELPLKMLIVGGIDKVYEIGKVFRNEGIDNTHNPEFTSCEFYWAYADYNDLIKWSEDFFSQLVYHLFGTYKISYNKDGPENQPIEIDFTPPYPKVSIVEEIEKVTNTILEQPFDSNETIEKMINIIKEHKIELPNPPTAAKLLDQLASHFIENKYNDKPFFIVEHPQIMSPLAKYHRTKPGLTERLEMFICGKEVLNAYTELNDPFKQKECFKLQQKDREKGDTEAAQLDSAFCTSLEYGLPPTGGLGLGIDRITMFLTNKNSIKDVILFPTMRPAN
UniProt Q4DA54, 1-478: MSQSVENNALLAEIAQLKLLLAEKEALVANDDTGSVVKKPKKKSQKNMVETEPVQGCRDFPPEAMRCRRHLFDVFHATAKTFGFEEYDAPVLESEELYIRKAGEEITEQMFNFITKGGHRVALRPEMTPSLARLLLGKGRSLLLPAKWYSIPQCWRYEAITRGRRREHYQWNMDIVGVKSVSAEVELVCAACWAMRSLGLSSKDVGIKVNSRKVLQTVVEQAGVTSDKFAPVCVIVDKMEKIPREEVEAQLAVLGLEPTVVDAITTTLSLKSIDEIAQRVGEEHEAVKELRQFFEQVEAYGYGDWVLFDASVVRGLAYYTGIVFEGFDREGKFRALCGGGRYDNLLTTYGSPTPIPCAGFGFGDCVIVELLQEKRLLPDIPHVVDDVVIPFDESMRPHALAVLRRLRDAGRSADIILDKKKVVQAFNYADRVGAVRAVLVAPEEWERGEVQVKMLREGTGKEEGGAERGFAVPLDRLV
UniProt I6X8D2, whole entry: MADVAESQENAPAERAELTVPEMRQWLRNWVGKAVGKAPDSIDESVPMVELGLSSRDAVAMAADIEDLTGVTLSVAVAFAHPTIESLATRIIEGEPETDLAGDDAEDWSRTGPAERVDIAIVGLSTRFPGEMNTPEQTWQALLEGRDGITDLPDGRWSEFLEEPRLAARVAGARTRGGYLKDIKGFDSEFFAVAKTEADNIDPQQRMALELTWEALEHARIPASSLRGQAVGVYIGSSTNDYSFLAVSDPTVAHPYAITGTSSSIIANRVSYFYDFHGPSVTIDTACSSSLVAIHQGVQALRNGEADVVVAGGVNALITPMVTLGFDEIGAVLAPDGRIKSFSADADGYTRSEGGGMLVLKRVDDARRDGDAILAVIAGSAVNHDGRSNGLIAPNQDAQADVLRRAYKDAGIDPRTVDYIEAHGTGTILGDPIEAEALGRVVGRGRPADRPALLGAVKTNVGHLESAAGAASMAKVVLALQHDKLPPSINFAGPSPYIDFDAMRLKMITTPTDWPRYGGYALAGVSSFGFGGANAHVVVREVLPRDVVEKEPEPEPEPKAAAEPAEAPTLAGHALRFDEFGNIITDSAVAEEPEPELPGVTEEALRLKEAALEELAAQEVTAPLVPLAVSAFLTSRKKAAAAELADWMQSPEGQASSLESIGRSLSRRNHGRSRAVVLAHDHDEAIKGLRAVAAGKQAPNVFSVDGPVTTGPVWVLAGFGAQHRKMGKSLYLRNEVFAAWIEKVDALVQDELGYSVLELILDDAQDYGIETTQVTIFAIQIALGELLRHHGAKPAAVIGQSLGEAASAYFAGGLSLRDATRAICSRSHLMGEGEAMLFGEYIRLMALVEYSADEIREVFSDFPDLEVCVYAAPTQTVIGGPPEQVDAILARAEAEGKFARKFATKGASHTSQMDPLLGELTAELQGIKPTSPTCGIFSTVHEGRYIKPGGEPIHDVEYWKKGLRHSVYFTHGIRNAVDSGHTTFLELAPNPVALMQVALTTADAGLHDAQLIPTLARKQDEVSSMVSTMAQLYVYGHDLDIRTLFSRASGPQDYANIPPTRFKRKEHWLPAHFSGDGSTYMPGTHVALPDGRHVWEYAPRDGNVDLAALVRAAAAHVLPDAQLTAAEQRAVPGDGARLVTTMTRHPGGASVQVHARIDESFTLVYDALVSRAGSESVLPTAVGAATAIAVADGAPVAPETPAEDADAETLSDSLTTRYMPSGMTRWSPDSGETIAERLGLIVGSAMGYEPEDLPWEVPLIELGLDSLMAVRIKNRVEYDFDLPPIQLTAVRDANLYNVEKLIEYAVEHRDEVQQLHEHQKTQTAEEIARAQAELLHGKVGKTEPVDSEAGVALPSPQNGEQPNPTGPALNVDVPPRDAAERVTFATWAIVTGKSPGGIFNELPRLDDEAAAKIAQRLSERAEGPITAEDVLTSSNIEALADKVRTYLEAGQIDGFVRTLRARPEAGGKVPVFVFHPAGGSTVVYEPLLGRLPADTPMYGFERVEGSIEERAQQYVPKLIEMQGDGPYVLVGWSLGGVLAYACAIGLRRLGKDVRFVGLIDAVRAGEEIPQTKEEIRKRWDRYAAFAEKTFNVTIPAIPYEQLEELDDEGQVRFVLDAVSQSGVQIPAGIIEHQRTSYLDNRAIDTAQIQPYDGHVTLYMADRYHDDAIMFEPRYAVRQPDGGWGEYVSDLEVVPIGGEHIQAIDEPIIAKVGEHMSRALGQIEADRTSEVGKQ

Data taken from ChEMBL document CHEMBL3988442, “University of Dundee, Small-Polar-MMV Screening Library” (2021).

Each number is a percent effect as filed. How 0% and 100% were set is not recorded. Most values in the screen are low, and negative values occur. The compounds are a random part of those screened.

PfKRS1: 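Lysine-tRNA ligase, Plasmodium falciparum 3D7 (UniProt Q8IDJ8). Enzyme assay of the cytosolic lysyl-tRNA synthetase in 384-well plates, read by luminescence. Concentration: 30 µM. Direction is inferred from only a few compounds that gave an IC50; most scored high, so higher reads as stronger inhibition. Size under these conditions: about 69,000 compounds, about 49 of them at 50% or above in at least one test.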
TcHisRS: 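Histidine-tRNA ligase, Trypanosoma cruzi CL Brener (UniProt Q4DA54). Enzyme assay of histidyl-tRNA synthetase; the read-out is not stated. Concentration: 30 µM. The record gives no direction; compounds that gave an IC50 in retests scored well above the rest, so higher reads as stronger inhibition. About 69,000 compounds were tested under these conditions; 0.045% (about 31) showed 50% or more at least once.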
Pks13 thioesterase: 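Polyketide synthase Pks13, Mycobacterium tuberculosis (UniProt I6X8D2). Enzyme assay of the thioesterase domain of polyketide synthase 13; the read-out is not stated. Concentration: 30 µM. The record gives no direction; the compounds picked for IC50 retests had high values, so higher reads as stronger inhibition. Size under these conditions: about 67,000 compounds, about 300 of them at 50% or above in at least one test.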

{"compound": "COc1ccc(-c2cnc(N(C)C)nc2C2CNCCO2)cc1", "stereo": "centres unmarked", "PfKRS1": -2.141, "TcHisRS": 1.429, "Pks13 thioesterase": -5.59}
{"compound": "CCC(Nc1nc(C2CCCC2)nc2c1cnn2C)c1ccncc1", "stereo": "centres unmarked", "PfKRS1": 2.337, "TcHisRS": -1.685, "Pks13 thioesterase": -15.12}
{"compound": "C[C@@H]1CN(S(=O)(=O)c2ccc(F)cc2F)C[C@]1(C)O", "PfKRS1": -5.597, "TcHisRS": 5.155, "Pks13 thioesterase": -22.41}
{"compound": "CCOC(=O)c1sc2ccsc2c1CNS(C)(=O)=O", "PfKRS1": -0.3204, "TcHisRS": 4.956, "Pks13 thioesterase": -12.92}
{"compound": "CC(C)n1ncc2cc(NC(=O)N3CCSCC3)cnc21", "PfKRS1": 0.8963, "TcHisRS": 4.094, "Pks13 thioesterase": -2.791}
{"compound": "Cc1csc(CNc2nc3c(s2)c(C)nn3C)n1", "PfKRS1": 6.395, "TcHisRS": -1.087, "Pks13 thioesterase": 24.02}
{"compound": "Cc1cc(C)n(CC2CCCN2C(=O)Cc2cn3ccsc3n2)n1", "stereo": "centres unmarked", "PfKRS1": 1.818, "TcHisRS": -1.685, "Pks13 thioesterase": -20.5}
{"compound": "O=C(NC[C@]12COC[C@H]1CN(Cc1ccncc1)C2)c1ccno1", "PfKRS1": -0.5375, "TcHisRS": 9.184, "Pks13 thioesterase": -9.298}
{"compound": "CC(=O)NC[C@]1(O)CCN(C(=O)c2ccc3c(c2)OCO3)C[C@H]1O", "PfKRS1": 2.521, "TcHisRS": 6.593, "Pks13 thioesterase": -11.88}
{"compound": "CN1C(=O)CCc2cc(NC(=O)C3CC3)ccc21", "PfKRS1": -1.053, "TcHisRS": 1.031, "Pks13 thioesterase": 2.938}
{"compound": "Cn1nnnc1SCCNC(=O)C1CCN(C(=O)C2CCC2)CC1", "PfKRS1": 0.6658, "TcHisRS": 3.784, "Pks13 thioesterase": -18.68}
{"compound": "c1csc(-c2noc(CN3CCc4cncnc4C3)n2)c1", "PfKRS1": 4.065, "TcHisRS": 15.12, "Pks13 thioesterase": 10.19}
{"compound": "CCCN1CCN(C(=O)c2cnn(-c3ccccc3F)c2)CC1", "PfKRS1": 11.32, "TcHisRS": 10, "Pks13 thioesterase": -13.97}
{"compound": "O=C(COCc1ccccc1)N1CCN(c2ccc(Cl)cn2)CC1", "PfKRS1": 5.179, "TcHisRS": 7.514, "Pks13 thioesterase": -0.8048}
{"compound": "O=C(c1cnccn1)N1CC[C@H]2C[C@@H](c3ccncn3)O[C@@H]2C1", "PfKRS1": 7.149, "TcHisRS": 4.132, "Pks13 thioesterase": -4.557}
{"compound": "CCCn1ccnc1CN1CCCC(CC)(CO)C1", "stereo": "centres unmarked", "PfKRS1": -0.1449, "TcHisRS": 4.741, "Pks13 thioesterase": -37.1}
{"compound": "O=C(NCC1CCC2(CCNCC2)O1)C1CC1", "stereo": "centres unmarked", "PfKRS1": 7.87, "TcHisRS": 7.767, "Pks13 thioesterase": -22.68}
{"compound": "Cc1noc(C2CCN(C(=O)c3cc(Br)ccc3F)CC2)n1", "PfKRS1": 6.721, "TcHisRS": -0.8403, "Pks13 thioesterase": -2.337}
{"compound": "CC1CCN(C(=O)Cc2ccc(S(=O)(=O)C(F)F)cc2)CC1", "PfKRS1": 0.2749, "TcHisRS": 0, "Pks13 thioesterase": -26.17}
{"compound": "Cn1c(Cn2cccn2)nnc1C1CCN(Cc2ccccc2Cl)CC1", "PfKRS1": 6.709, "TcHisRS": 2.232, "Pks13 thioesterase": -6.652}
{"compound": "Cc1cccc(NC2CCN(C(=O)Nc3cc(F)ccc3F)CC2)n1", "PfKRS1": 0.03405, "TcHisRS": 3.488, "Pks13 thioesterase": -11.1}
{"compound": "CCOc1ccc(NC(=O)N2CCOC(C(N)=O)C2)cc1Cl", "stereo": "centres unmarked", "PfKRS1": 0.4016, "TcHisRS": 2.01, "Pks13 thioesterase": -19.61}
{"compound": "COc1ccc(CCNC2CCCN(c3ccc(C)nn3)C2)cc1", "stereo": "centres unmarked", "PfKRS1": -1.855, "TcHisRS": 11.7, "Pks13 thioesterase": -13.38}
{"compound": "Cc1ccc2cc(C3(O)CCN(C(=O)CN4CCCC4)CC3)ccc2n1", "PfKRS1": 2.896, "TcHisRS": 9.756, "Pks13 thioesterase": -6.321}

2 of the entries, repeated:

| Compound | PfKRS1 | TcHisRS | Pks13 thioesterase |
|---|---|---|---|
| `Cc1cc(C)n(CC2CCCN2C(=O)Cc2cn3ccsc3n2)n1` (centres unmarked) | 1.818% | -1.685% | -20.5% |
| `CC(C)n1ncc2cc(NC(=O)N3CCSCC3)cnc21` | 0.8963% | 4.094% | -2.791% |